Experimental data: patent US20160053025A1
Results are given in words; binding and its absence hold for the method and conditions named. Some results given as binding are weak or reduced against the parent protein; the word gives no strength.

The chains behind the UniProt entries cited, without tags or fusion partners. Where a name states a change or a piece, a line headed by the entry shows the natural chain unless it says otherwise.
UniProt O15123: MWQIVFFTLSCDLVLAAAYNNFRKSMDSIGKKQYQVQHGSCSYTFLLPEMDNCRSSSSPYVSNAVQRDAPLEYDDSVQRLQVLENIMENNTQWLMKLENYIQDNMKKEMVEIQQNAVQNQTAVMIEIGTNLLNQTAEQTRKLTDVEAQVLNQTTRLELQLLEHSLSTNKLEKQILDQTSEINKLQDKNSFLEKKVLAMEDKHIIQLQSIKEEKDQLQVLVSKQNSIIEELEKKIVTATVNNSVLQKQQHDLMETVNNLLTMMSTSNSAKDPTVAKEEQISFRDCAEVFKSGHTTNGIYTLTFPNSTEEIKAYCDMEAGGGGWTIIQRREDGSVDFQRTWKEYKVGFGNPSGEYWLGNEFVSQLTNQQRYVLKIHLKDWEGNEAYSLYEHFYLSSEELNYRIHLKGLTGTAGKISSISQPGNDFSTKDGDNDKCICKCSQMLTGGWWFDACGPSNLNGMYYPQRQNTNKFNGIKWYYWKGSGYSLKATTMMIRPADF

Biological target: FLAG-tagged hAng-2 (human) (UniProt O15123)
Assay: Complex ELISA: plate coated with Tie2-Fc (4 ug/ml), FLAG-Ang2 0.25 ug/ml and 10D6 2 ug/ml added together, bound 10D6 detected with anti-mouse IgG-HRP, OD450

- binding: binds
B1: SAIT-ANG2-AB-m10D6 (antibody, V domains shown)
VH: DVQLQESGPDLVKPSQSLSLTCTVTGYSITSDYAWNWIRQFPGNKLEWMGYINYSGNTDYNPSLKSRSSITRDTSKNQFFLQLNSVTTGDTATYYCARGNFEGAMDYWGQGTSVTVSS
VL: SIVMTQTPKFLLVSAGDRVTITCKASQSVSNDVAWYQQKPGQSPKLLIYYASNRYPGVPDRFTGSGYGTDFTFTISTVQAEDLAVYFCQQDYSSPWTFGGGTKLEIK
